Results deposited as PubChem BioAssay AID720505 (Drosophila RNAi Screening Center, 2013)
In all, the deposit lists about 20,000 reagents; this is a random part of those with a known target gene and a result. In the full data, about 2,100 (10%) are marked active. 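Raw plate signals without normalisation; calls rest on control-based scores that were not deposited; replicate 2 separates called from uncalled poorly.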 Names joined by + are all predicted targets of the reagent. Not given: the amount of reagent, the time to read-out.

Screen: 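Fly regulators or components of the CRAC channel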 (primary screen)
System: Drosophila S2R+ cells
Reagent: long dsRNA against Drosophila genes
Challenge: thapsigargin (2 µM) in calcium-free buffer to empty internal stores, then 2 mM calcium added back
Measurement: 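Stores emptied by 2 µM thapsigargin without calcium, then 2 mM calcium re-added; fluo-4 fluorescence followed by FLIPR in 384-well plates, per-well averaged endpoint, raw; two screen passes, some wells retested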
Reading the numbers: calcium signal and retest calcium signal: higher = more calcium entry after store depletion
Active means: 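Knock-downs counted as hits when calcium entry dropped relative to STIM1 positive and Rho1 negative controls present on each plate; roughly 1500 genes called, with reductions of differing size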
Meaning of the calls: active = called as lowering calcium entry; inactive = not called

no.	Target gene	amplicon	calcium signal, replicate 1	calcium signal, replicate 2	retest calcium signal, replicate 1	retest calcium signal, replicate 2	call
1	TwdlK (GeneID 43205)	DRSC16045	59.3	84.1			active
2	eIF4E1 (GeneID 45525)	DRSC11342	53.3	105			active
3	CG13937 (GeneID 38249)	DRSC08406	135	160			inactive
4	Obp83cd (GeneID 40746)	DRSC12267	82.9	126			inactive
5	Hs3st-B (GeneID 32918)	DRSC20067	57.8	173			active
6	CG15643 (GeneID 32489)	DRSC19679	71.3	116			active
7	CG42372 + CG30100	DRSC05602	55.7	91.1			active
8	Sik2 (GeneID 31170)	DRSC18522	102	136			inactive
9	fne (GeneID 32245)	DRSC20332	86.6	93.9			inactive
10	fne (GeneID 32245)	DRSC22418	61	162			inactive
11	Timp (GeneID 41248)	DRSC17082	87.2	132			inactive
12	Dolk (GeneID 36856)	DRSC07143	125	114			inactive
13	CG12863 (GeneID 36623)	DRSC06203	145	178			inactive
14	Sgt (GeneID 35052)	DRSC02812	108	116			inactive
15	Zw (GeneID 32974)	DRSC20303	61.6	114			active
16	CG7239 (GeneID 33809)	DRSC03038	129	158			inactive
17	CG7239 (GeneID 33809)	DRSC23113	120	143			inactive
18	Gpa2 (GeneID 5740142)	DRSC21071	99.5	92.5			inactive
19	CG17821 (GeneID 37159)	DRSC06696	189	160			inactive
20	CG14949 (GeneID 38328)	DRSC08408	87.9	75.2			inactive
21	CG11594 (GeneID 38473)	DRSC08207	185	108			inactive
22	mge (GeneID 38459)	DRSC08721	85	95.7			inactive
23	Pxt (GeneID 42131)	DRSC17040	63.4	103			active
24	lab (GeneID 40817)	DRSC12627	167	212			inactive
25	crn (GeneID 31208)	DRSC18184	78.7	91.7			inactive
26	crn (GeneID 31208)	DRSC18185	98.4	148			inactive
27	crn (GeneID 31208)	DRSC18755	68.6	101			active
28	CG12438 (GeneID 34202)	DRSC02167	119	84.2			inactive
29	Ref1 (GeneID 44029)	DRSC12497	81.4	99	142	128	inactive
30	Ref1 (GeneID 44029)	DRSC22387	53.5	188			active
31	CG17211 (GeneID 34639)	DRSC02587	116	96.1			inactive
32	CG7276 (GeneID 39668)	DRSC10797	70.8	111			inactive
33	CG34223 (GeneID 5740431)	DRSC05268	81.7	115			inactive
34	Wnt5 (GeneID 32838)	DRSC20300	73.8	110			inactive
